This note sets out measurements from patent publication US20130172273A1 (GENETADI BIOTECH, S.L., priority 2010, published 2013).

The nature of the data set: general procedure: solution-phase peptide synthesis; HATU/KHCO3; HATU/HOAT/KHCO3 for cyclisation.
Setting [1] is: late stage modification step, trifluoroacetate salt.

cyclo-[Asp-(beta-Lactam)-Arq: the step yield under setting [1] was 78%.
“Cbz-Asp(O^tBu)-(beta-Lactam)-Arq(Pbf)-OBn” registered a step yield (coupling step) of 75%.
Regarding cyclo-[Asp-(beta-Lactam)-Arg, under setting [1], the step yield is reported as 85%.
